# Laboratory results: PubChem BioAssay AID2685 (National Center for Advancing Translational Sciences (NCATS), 2010)
# The other results are listed elsewhere or left out. These are further read-outs of the screen, such as a control signal, another cell line or another target. No call is given for them. Most of these compounds were active or inconclusive in the main read-out, so they are no random draw. Potencies come from curve fits of mixed quality, noted in brackets.
# Experiment: qHTS Assay for Lipid Storage Modulators in Drosophila S3 Cells;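 on cell number change: cells counted by Cell Tracker Red CMTPX staining in the red channel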
# Settings: BODIPY lipid droplet fluorescence, 18-24 h; for cell number change: measured here: cell count max response, cells fed with added oleic acid
# Summary of the method: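 Drosophila S3 cells loaded with oleic acid (400 uM, as added) and compounds at several concentrations; lipid droplets imaged by 488-nm laser-scanning cytometry, 500–530 nm intensity and object ratio to cell channel. Percent activity normalized to 20 uM Triacsin C.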
# [1] = measured here: lipid fluorescence (Fed channel) AC50, cells fed with added oleic acid
# [2] = measured here: cell number channel AC50, cells fed with added oleic acid
Compound,cell number change [%],AC50 [1],AC50 [2]
Cc1occc1C(=O)NNC(=S)Nc1ccccc1C(F)(F)F,-6.77,"0.092 µM [rising, full curve, poor fit]",–
COc1ccc(C2C(C(C)=O)=C(O)C(=O)N2c2nccs2)c(OC)c1 (stereo not drawn),-41.2,"5.17 µM [falling, single point]","3.66 µM [falling, full curve, poor fit]"
O=S(=O)(c1cc(Cl)ccc1Cl)N1CCNCC1,-0.996,–,–
O=C(O)c1ccc(CNc2ccccc2C(=O)O)cc1,–,"5.17 µM [falling, partial curve]","5.17 µM [falling, partial curve]"
Cc1ccccc1C(=O)N(C)c1ccccc1C(=O)NCc1ccccc1,24.2,"6.31 µM [rising, single point]",–
Cc1ccc(CNc2nc(-c3cccs3)nc3ccccc23)cc1,12.2,"2.59 µM [rising, full curve]","2.31 µM [rising, single point]"
O=C(CCc1ccc(S(=O)(=O)N2CCOCC2)cc1)OCc1nc2ccccc2s1,-5.74,–,"0.092 µM [falling, full curve, poor fit]"
Cn1c(-c2cc3ccccc3oc2=O)nc2ccccc21,-8.88,"0.651 µM [falling, single point]",–
O=C1CCCc2c1cc(C(=O)Nc1ccc(Cl)cn1)c(=O)n2-c1ccccc1,21.9,"3.66 µM [rising, single point]",–
CCOC(=O)c1ccc(NC(=O)c2ccco2)cc1,-3.02,"18.4 µM [falling, single point]",–
COc1ccc(C)cc1NC(=S)NN1CCN(C)CC1,0.896,–,–
CC(C)(C)c1ccc(NC(=O)C2=CN3CCS(=O)(=O)N=C3C=C2)cc1,17,"3.26 µM [rising, single point]",–
Cc1ccc(Nc2nc(-c3cccnc3)cs2)cc1Cl,-19.2,"29.1 µM [rising, single point]",–
O=S(=O)(c1ccc(Cl)cc1)c1cnc2ccccc2n1,–,"29.1 µM [falling, partial curve, poor fit]",–
COc1ccc(-c2cc(C)no2)cc1S(=O)(=O)N1CCN(c2ccc([N+](=O)[O-])cc2)CC1,9.16,"0.651 µM [rising, partial curve]",–
CCN(Cc1ccncc1)C(=O)C1CCC(=O)N(Cc2ccc(Cl)cc2)C1 (stereo not drawn),27.2,"9.2 µM [rising, partial curve]",–
COc1ccc(C(=O)OCN2C(=O)c3ccccc3C2=O)cc1,9.41,"35.5 µM [rising, single point]",–
C[C@@H]1CC=C[C@H]2[C@H]1C(=O)N(Cc1ccccc1)[C@H]2c1ccc(-c2ccoc2)cc1F,19.3,"20.6 µM [rising, single point]",–
O=C(O)c1ccc(Nc2ccc3nonc3c2[N+](=O)[O-])cc1,-2.35,"29.1 µM [rising, single point]",–

# 3 records picked at random from those above:
Compound,cell number change [%],AC50 [1],AC50 [2]
Cn1c(-c2cc3ccccc3oc2=O)nc2ccccc21,-8.88,"0.651 µM [falling, single point]",–
CCN(Cc1ccncc1)C(=O)C1CCC(=O)N(Cc2ccc(Cl)cc2)C1 (stereo not drawn),27.2,"9.2 µM [rising, partial curve]",–
O=C(CCc1ccc(S(=O)(=O)N2CCOCC2)cc1)OCc1nc2ccccc2s1,-5.74,–,"0.092 µM [falling, full curve, poor fit]"

# Later entries

Compound,cell number change [%],AC50 [1],AC50 [2]
O=C(/C=C/c1ccco1)NC(=S)Nc1cccc(C(=O)O)c1,-7.41,"6.51 µM [falling, single point]",–
CCC(=O)Oc1cccc(C(=O)Nc2ccc(-c3nnc(-c4ccco4)o3)cc2)c1,-46.6,–,"29.1 µM [falling, single point]"
CN(C)c1ccc(-c2nn3c(-c4cccnc4)nnc3s2)cc1,-10.9,"0.092 µM [rising, full curve, poor fit]",–
COc1ccc(S(=O)(=O)N2CC(C)N(C(=O)N(C)C)C2C(C)C)cc1 (stereo not drawn),23.3,–,–
N#CC1=C(S)N(c2ccccc2)C(c2ccc(-c3ccc(Cl)c(Cl)c3)o2)NC1=O (stereo not drawn),–,"23.1 µM [rising, partial curve]","7.31 µM [rising, single point]"
O=C(Nc1cccc([N+](=O)[O-])c1)Nc1ccc2c(c1)CCC2,-2.59,"2.59 µM [falling, partial curve, poor fit]",–
COc1ccc(Cl)cc1C(=O)NC(=S)Nc1cc(-c2nc3ccccc3[nH]2)ccc1C,–,"0.259 µM [falling, full curve]","0.116 µM [falling, full curve, poor fit]"
Nc1nnc(C2CCCC2)s1,3.06,"23.1 µM [falling, partial curve]",–
COc1cc2cc(C#N)c(SCC(=O)Nc3cc(C)on3)nc2cc1OC,31.3,–,"16.4 µM [rising, single point]"
COc1ccc(CCN2CC3=C(C2=O)C(c2ccccc2)NC(=O)N3C)cc1OC (stereo not drawn),27.8,"29.1 µM [rising, single point]",–
CC(=O)/C=C1\SC(CC(=O)O)C(=O)N1c1ccccc1 (stereo not drawn),10.9,"0.58 µM [rising, full curve, poor fit]",–
O=C(c1ccco1)N1CCN(C(=O)N2CCCC2)CC1,-41.8,–,"0.13 µM [falling, full curve]"
CNC(=O)CSc1ncnc2c1cnn2-c1ccccc1,11.8,"2.59 µM [rising, partial curve]",–
CCCCc1nc2sc3c(SCCN(C)C)ncnc3c2c2c1CCC2,–,"0.092 µM [falling, full curve]","0.164 µM [falling, full curve]"
CCOC(=O)c1c2c3c(cccc3[nH]c1=O)C(=O)c1ccccc1-2,32.3,–,"0.0058 µM [rising, full curve, poor fit]"
CC1CCCCN1C(=O)COc1ccc(S(=O)(=O)N2CCCC2)cc1[N+](=O)[O-] (stereo not drawn),0.0695,–,–
C/C(CC(=O)NCc1ccc(Cl)cc1)=N\NC(=O)Cc1ccccc1,25.2,"13 µM [rising, partial curve, poor fit]",–
CCc1ccc(C(=O)/C=C2\Sc3ccccc3NC2=O)cc1,-4.75,"5.17 µM [rising, partial curve]",–
COc1cc(/C=N/NC(=O)C(Cc2c[nH]c3ccccc23)NC(=O)OCC(C)C)cc([N+](=O)[O-])c1OCc1ccccc1 (stereo not drawn),-0.241,"0.00411 µM [rising, full curve, poor fit]",–
